For some of these results: Negatives hold for the conditions tested. For some of these results: Results from cells or extracts need not show a direct contact. For some of these results: Protein sequences can lack the tags named with them. For some of these results: The exact form of at least one protein or probe is not confirmed.
Experiments:
[1] = target: TLR4 (hTLR-4) (Homo sapiens) (UniProt O00206); experiment: activity in cells; details: protein on the cell surface, single-stranded DNA
[2] = target: T1, TLR4 (mouse, on blood cells or peritoneal macrophages) (Mus musculus) (UniProt Q9QUK6); experiment: flow cytometry; details: labelled aptamer 0.9 mg/kg i.v.; detected on blood cells (granulocyte region) of TLR4+/+ but not TLR4-/- mice; protein on the cell surface; label: Alexa Fluor 488 in binding assays; single-stranded DNA; variant of ApTLR#4F
T1 sequence (looked up, limits assumed): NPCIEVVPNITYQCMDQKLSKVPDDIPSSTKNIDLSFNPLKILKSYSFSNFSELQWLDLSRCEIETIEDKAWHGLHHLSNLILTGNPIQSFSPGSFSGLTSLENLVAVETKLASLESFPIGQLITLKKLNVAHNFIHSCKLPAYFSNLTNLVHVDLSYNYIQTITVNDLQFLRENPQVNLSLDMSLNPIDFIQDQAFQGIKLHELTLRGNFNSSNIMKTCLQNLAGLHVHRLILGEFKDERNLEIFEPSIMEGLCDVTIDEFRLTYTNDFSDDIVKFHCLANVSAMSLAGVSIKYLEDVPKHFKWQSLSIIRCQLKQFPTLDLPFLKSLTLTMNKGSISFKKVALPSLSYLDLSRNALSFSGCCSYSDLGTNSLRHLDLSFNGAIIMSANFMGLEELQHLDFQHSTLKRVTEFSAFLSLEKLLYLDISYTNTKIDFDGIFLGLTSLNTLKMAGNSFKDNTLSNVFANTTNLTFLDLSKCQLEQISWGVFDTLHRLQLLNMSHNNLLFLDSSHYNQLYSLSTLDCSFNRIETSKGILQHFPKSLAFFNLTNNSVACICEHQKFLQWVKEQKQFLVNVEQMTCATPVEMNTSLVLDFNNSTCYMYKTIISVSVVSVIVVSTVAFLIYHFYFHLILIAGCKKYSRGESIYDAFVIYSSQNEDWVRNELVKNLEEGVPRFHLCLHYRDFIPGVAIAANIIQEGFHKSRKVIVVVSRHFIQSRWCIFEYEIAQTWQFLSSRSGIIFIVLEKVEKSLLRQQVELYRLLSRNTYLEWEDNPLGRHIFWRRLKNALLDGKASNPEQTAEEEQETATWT

Amino acid sequences for entries named in this document (tags omitted). Residues count along the entry.
UniProt O00206, 24-839: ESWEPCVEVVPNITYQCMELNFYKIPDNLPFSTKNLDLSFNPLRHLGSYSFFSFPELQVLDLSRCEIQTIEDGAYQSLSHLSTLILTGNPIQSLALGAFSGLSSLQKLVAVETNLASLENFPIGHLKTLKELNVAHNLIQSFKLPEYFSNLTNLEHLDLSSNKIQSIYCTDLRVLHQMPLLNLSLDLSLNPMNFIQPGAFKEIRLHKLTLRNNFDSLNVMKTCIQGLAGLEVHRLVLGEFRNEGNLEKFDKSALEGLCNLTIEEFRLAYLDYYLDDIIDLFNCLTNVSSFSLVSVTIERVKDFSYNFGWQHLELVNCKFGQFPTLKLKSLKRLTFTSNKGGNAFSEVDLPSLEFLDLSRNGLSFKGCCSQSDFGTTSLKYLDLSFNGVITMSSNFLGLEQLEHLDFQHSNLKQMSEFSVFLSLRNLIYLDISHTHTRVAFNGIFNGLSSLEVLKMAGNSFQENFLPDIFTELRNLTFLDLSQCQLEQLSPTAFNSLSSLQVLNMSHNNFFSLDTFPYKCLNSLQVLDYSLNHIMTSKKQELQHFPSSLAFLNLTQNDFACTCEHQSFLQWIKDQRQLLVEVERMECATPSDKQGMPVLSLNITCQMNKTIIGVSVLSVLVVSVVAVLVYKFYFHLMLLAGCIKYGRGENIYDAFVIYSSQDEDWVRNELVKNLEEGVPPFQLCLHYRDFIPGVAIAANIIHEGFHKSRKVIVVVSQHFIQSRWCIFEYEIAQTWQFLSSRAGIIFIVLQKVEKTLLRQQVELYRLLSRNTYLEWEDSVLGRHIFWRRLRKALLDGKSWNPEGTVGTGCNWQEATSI
UniProt O60602, 21-858: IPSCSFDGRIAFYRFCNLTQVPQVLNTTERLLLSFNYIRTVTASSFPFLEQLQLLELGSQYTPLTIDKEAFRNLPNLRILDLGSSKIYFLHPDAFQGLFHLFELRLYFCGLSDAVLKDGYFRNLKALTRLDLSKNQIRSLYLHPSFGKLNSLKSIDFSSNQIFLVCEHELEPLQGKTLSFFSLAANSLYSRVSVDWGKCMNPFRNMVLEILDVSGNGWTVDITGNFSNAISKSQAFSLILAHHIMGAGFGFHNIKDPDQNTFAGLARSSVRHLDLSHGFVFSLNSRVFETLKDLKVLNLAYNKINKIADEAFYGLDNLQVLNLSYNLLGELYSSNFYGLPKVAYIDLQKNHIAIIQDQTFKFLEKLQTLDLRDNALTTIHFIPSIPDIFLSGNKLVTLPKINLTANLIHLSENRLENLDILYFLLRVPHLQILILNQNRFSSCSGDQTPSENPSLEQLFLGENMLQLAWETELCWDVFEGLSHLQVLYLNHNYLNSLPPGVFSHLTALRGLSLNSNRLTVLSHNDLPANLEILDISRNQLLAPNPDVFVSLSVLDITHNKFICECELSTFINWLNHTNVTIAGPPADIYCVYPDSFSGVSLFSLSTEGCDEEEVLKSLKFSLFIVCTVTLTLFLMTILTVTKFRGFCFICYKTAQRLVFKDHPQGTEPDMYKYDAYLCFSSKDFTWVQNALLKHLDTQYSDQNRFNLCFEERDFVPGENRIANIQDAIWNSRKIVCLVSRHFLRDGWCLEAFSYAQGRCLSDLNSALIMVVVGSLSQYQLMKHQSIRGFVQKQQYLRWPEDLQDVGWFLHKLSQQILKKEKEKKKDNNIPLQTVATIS
UniProt O60603, 21-784: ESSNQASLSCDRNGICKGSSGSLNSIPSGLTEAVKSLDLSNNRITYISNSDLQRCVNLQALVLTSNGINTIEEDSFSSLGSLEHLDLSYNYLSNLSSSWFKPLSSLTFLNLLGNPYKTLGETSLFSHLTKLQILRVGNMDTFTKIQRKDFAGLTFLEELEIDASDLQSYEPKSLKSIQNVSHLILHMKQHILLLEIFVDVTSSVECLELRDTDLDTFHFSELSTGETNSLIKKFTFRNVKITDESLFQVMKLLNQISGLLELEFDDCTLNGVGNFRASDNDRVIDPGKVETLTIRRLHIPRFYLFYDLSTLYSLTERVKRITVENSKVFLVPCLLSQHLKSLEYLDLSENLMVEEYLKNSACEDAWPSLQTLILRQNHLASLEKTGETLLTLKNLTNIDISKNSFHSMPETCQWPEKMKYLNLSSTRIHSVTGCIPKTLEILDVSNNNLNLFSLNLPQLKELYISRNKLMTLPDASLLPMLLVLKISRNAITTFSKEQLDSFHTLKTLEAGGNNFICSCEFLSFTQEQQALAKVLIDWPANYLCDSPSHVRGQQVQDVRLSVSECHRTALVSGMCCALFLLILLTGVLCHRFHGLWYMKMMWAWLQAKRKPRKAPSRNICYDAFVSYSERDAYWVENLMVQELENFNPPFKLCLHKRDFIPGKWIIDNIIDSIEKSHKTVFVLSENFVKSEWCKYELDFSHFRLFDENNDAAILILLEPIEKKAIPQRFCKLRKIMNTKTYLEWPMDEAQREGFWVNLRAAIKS

[3] = target: TLR5 (hTLR5) (Homo sapiens) (UniProt O60602); experiment: activity in cells; details: 20 and 200 nM; no agonism, no antagonism of FLAT-ST activation; protein on the cell surface; protein details: HEK-blue-hTLR5 cells; single-stranded DNA; variant of ApTLR#4F
[4] = target: TLR2 (hTLR2) (Homo sapiens) (UniProt O60603); experiment: activity in cells; details: 20 and 200 nM; no agonism, no antagonism of Pam3 activation; protein on the cell surface; protein details: HEK-blue-hTLR2 cells; single-stranded DNA; variant of ApTLR#4F

“CCGGCACGGGACAAGGCGCGGGACGGCGTAGATCAGGTCGACACC [ApTLR#1RT]” was tested, and the “functional effect of the aptamer” value ([1]; antagonism of LPS- and DAMP-induced SEAP maintained at 20 nM, variant of ApTLR#1R) was “active”.

Sequence “GCGGATGAAGACTGGTGTGCCAATAAACCATATCGCCGCGTTAGCATGTACTCGGTTGGCCCTAAATACGAGCAAC [ApTLR#4F]” has a functional effect of the aptamer ([1]; maximal at 200 nM, LPS-induced SEAP, 38x(AG) ssDNA as control) of 30 % inhibition.

In the case of “GGTGTGCCAATAAACCATATCGCCGCGTTAGCATGTACTCGGTTGGCCCTAAATACGAG [ApTLR#4FT (ApTOLL)]”, the binding result [2] is reported as “binds”, the “functional effect of the aptamer” value ([1]; antagonism of LPS- and DAMP-induced SEAP maintained at 20 nM, variant of ApTLR#4F) is reported as “active” and the “functional effect of the aptamer” value [3] is reported as “not active”. For the same sequence, the “functional effect of the aptamer” value [4] was “not active”.

With “GTTGCTCGTATTTAGGGCCACCGGCACGGGACAAGGCGCGGGACGGCGTAGATCAGGTCGACACCAGTCTTCATCCGC [ApTLR#1R]” the functional effect of the aptamer ([1]; maximal at 20 nM, LPS-induced SEAP, 38x(AG) ssDNA as control) was 30 % inhibition.
